Measured values from PubChem BioAssay AID652054 (National Center for Advancing Translational Sciences (NCATS), 2013).
The campaign covered roughly 360,000 compounds. About 9,100 (2.5%) were called active. Inconclusive means that the source gave no clear call. Such entries were picked first, then a sample of the others. Cut-off read from the data, not from the text of the source: active = max response below about -50%; inconclusive = no clear call, values can overlap the other calls; inactive = above that.

Sequences of proteins named here, by UniProt entry; tags and fusion partners are left off.
UniProt P35462, whole entry, looked up: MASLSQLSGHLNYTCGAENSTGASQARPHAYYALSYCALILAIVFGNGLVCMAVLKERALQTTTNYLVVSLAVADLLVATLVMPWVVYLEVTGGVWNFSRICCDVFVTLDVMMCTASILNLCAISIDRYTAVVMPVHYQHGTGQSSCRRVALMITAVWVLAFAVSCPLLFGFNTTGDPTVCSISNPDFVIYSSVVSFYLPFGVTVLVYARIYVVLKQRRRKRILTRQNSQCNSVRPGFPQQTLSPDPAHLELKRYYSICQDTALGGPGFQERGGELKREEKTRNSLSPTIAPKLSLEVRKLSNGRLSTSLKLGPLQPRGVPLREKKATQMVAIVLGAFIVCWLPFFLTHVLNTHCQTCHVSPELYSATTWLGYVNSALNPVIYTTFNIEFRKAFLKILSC

The molecules below were run against D(3) dopamine receptor (Homo sapiens) (UniProt P35462) (assay: qHTS of D3 Dopamine Receptor Antagonist: qHTS). Conditions: D3R cells, DiscoveRx beta-arrestin luminescence, antagonist mode; hits give low values.
Method in brief: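 Cells expressing the human receptor were seeded at 1500 cells/well, incubated overnight at 37 degrees C in 5% CO2, then exposed to library compounds with dopamine controls for 90 minutes at 37 degrees C before luminescent detection.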
% is set by controls: 0 for no effect and ±100 for the full control effect.

Compound	max response, negative = inhibition
O=C(CCCC(=O)NCCc1ccccc1)NCCc1ccccc1	inconclusive: -37.9%
c1ccc2nc3ccccc3nc2c1	inactive: -25.2%
CC1(C)CC(=O)C2=C(C1)N=C1SCCC(=O)N1C2c1ccccc1 (stereo unspecified)	active: -53.2%
C[C@@H]1CN([C@H](C)CO)C(=O)CCCn2nncc2CO[C@H]1CN(C)S(=O)(=O)c1ccc(Oc2ccccc2)cc1	inconclusive: -38.2%
Cc1nn(-c2ccccc2)c2[nH]c(=O)c(CNCCN3CCOCC3)cc12	active: -65.6%
FC(F)(F)c1ccc(C2[C@H]3CN(Cc4cccnc4)[C@H](c4ccccc4)C34CC2(c2cccnc2)C4)cc1 (stereo partly specified)	inconclusive: -34.7%
CCOC(=O)C1CCCN(C(=O)c2ccccc2SCCOC)C1 (stereo unspecified)	inactive: 8.83%
COc1ccccc1-c1nnc(NC(=O)C2CCCN2S(=O)(=O)c2cccs2)o1 (stereo unspecified)	inactive: 17.2%
CC1CC(C)CN(CCCNC(=O)c2ccc(CS(=O)(=O)Cc3ccccc3F)o2)C1 (stereo unspecified)	inconclusive: -42.3%
CCC1=C(Nc2ccccc2)COC1=O	inconclusive: -45.9%
O=C(c1nnsc1S(=O)(=O)c1ccc(Cl)cc1)N1CCOCC1	inconclusive: -49.1%
O=C(NCCc1cnc[nH]1)Nc1cccc(C(F)(F)F)c1	inconclusive: -32.8%
COc1cc(NC(=O)C2=C(C)OCCS2)c(Cl)cc1C(=O)NCCN(C)C	active: -52.4%
OC(c1ccc(F)c(F)c1)c1nc(-c2cccs2)cs1 (stereo unspecified)	inconclusive: -32.2%
C=CCc1ccc(OCC(O)CN2CCN(c3ccccc3)CC2)c(OC)c1 (stereo unspecified)	inconclusive: -43.1%
O=C(O)CCCN1C(=O)C2C3CCC(C3)C2C1=O (stereo unspecified)	active: -73.4%
C/C(=N\NC(N)=S)c1ccc(-n2ccnc2)cc1	inconclusive: -37.6%
Cn1c(C(=O)NCCCN2CCN(c3ccccc3F)CC2)cc2c(=O)n(C)c3ccccc3c21	active: -73.1%
COC(=O)c1ccccc1OC(=O)c1ccc(Br)o1	inconclusive: -31.6%

Laid out differently: results already given.
COc1ccccc1-c1nnc(NC(=O)C2CCCN2S(=O)(=O)c2cccs2)o1 (stereo unspecified)
  max response, negative = inhibition: inactive: 17.2%
O=C(NCCc1cnc[nH]1)Nc1cccc(C(F)(F)F)c1
  max response, negative = inhibition: inconclusive: -32.8%
COC(=O)c1ccccc1OC(=O)c1ccc(Br)o1
  max response, negative = inhibition: inconclusive: -31.6%

Continuation:

Compound	max response, negative = inhibition
CN1CCN(S(=O)(=O)c2cccc(C(=O)N(Cc3nnc(-c4ccc(Cl)cc4)o3)C3CC3)c2)CC1	inactive: -4.36%
CCC(Nc1nc(-c2ccccc2)nc2ccccc12)C(=O)O (stereo unspecified)	inconclusive: -30%
CC(C)C(NC(=O)c1ccccc1)C(=O)N1CCN(C/C=C/c2ccccc2)CC1 (stereo unspecified)	inconclusive: -31.9%
O=C(NCCCN1CCC(Cc2ccccc2)CC1)C1CCC(=O)N1C1CCCC1 (stereo unspecified)	active: -118%
CC1(C(=O)NCc2ccccc2Br)CCN1Cc1ccccc1OC(F)F (stereo unspecified)	inactive: 4.53%
CCOC(=O)c1cc(-c2ccccc2)sc1NC(=O)C(C)OC(=O)c1ccncc1 (stereo unspecified)	inactive: 73.1%
OCCNc1nc(N2CCCCC2)nc2ccccc12	inactive: -8.47%
CCOc1ccc2c(c1)OC1(CCC(C)C1)CC2=O (stereo unspecified)	inconclusive: -44%
COc1ccc(N/C=C\C(=O)c2ccc3c(c2)OCO3)cc1	inconclusive: -34.2%
CCOC(=O)CC(=O)Nc1ccc(C)cc1	inconclusive: -32.2%
O=C1N=c2ccccc2=C1c1c(O)n(-c2cccc(F)c2)[nH]c1=O	inconclusive: -31.6%
COc1cccc(CN2CC(C(=O)N(C)C3CCOCC3)CCC2=O)c1 (stereo unspecified)	inactive: 8.12%
CC1(c2ccc([N+](=O)[O-])cc2)NC(=O)N(CC(=O)Nc2ccc(N3CCCCC3)cc2)C1=O (stereo unspecified)	active: -50.8%
O=C(NCCCN1CCCC1)c1cc2c(Cl)nc3ccccc3c2s1	inconclusive: -48.2%
Cn1c(CCN2CCCCC2)nc2cc(NS(=O)(=O)c3ccc(F)cc3)ccc21	active: -65.9%
CCC(C)NC(=O)CC(NS(=O)(=O)c1ccc(Cl)cc1)c1ccco1 (stereo unspecified)	active: -52.9%
Cc1ccc(NC(=S)NCCN(C2CCCCC2)C2CCCC2)cc1C	inconclusive: -49.8%
COc1ccc(-c2nc3c4ccccc4ccn3c2CC2CCCCC2)cc1OC	inconclusive: -39.5%
BrC(=C\c1ccccc1)/C=N/N1CCN(Cc2ccccc2)CC1	inconclusive: -37%

Compound	max response, negative = inhibition
Cc1ccccc1N1CCN(C2=NC(=O)/C(=C/c3cn[nH]c3-c3ccccc3)S2)CC1	inactive: 0%
CC(C)c1nnc(NC(=O)c2nc(S(=O)(=O)Cc3ccc(F)cc3)ncc2Cl)s1	active: -60.8%
Cc1nn(CC(=O)NCCCN2C(C)CCCC2C)c(=O)c2cc3occc3n12 (stereo unspecified)	inactive: 10.3%
CCC1(O)C(=O)OCc2c1cc1n(c2=O)Cc2cc3cc(O)ccc3nc2-1 (stereo unspecified)	inactive: -18.8%
CC1=CC(=O)C=C(C)C1=NOS(=O)(=O)c1ccccc1	active: -56.1%
CCN(CC)C(=O)C1=C(C)N(CCC2=CCCCC2)C(=O)C(CC(=O)NC(c2ccccc2)c2ccccc2)C1 (stereo unspecified)	inconclusive: -42.5%
CN(C(=S)NC(=O)C1CCCC1)c1ccccc1	inactive: 20.7%
Cc1cccc(CS(=O)(=O)c2ncc(Cl)c(C(=O)Nc3ccc(F)cc3)n2)c1	active: -105%
COc1cc(C(CCN2CCCC(C)C2)c2c(OC)cc(OC)c3c(-c4ccccc4)cc(=O)oc23)cc(OC)c1OC (stereo unspecified)	active: -51.2%
CCOc1ccccc1NC(=O)CN(c1ccc(OC)cc1)S(=O)(=O)c1c(C)noc1C	inconclusive: -30.4%
OCCC#Cc1ccc(CN2CCN(C3CCCCC3)C(CCO)C2)cc1 (stereo unspecified)	inactive: -14%
CCCC(c1nnnn1Cc1ccc(OC)cc1)N1CCN(c2ccccc2OC)CC1 (stereo unspecified)	inconclusive: -31.3%
CC(=O)Nc1ccc(-c2ccnc3c2CC(C)(C(=O)NCc2ccc(N(C)C)cc2)O3)cc1 (stereo unspecified)	inconclusive: -45.1%
O=C1NC2(NN1c1ccccc1)C1CC3CC(C1)CC2C3 (stereo unspecified)	inconclusive: -35.3%
COC(C[C@@H]1O[C@H]1[C@H](O)COCc1ccccc1)OC	inactive: -2.19%
O=C1NC[C@@H](c2ccccc2)OC(=O)[C@@H](Cc2ccc(F)cc2)CC/C=C/C[C@H]1CC(=O)N(CCO)Cc1ccccc1	inactive: 15.8%
C=CCc1cc(CN2CC(C)OC(C)C2)c(O)c(OC)c1 (stereo unspecified)	inactive: -10.8%
COc1cccc(NC(=O)CCCn2c(=S)[nH]c3ccccc3c2=O)c1	inconclusive: -34.8%
